For nine targets, log2 fold change results are on record in the supplement of paper PMC12819154, “High-throughput peptide-centric local stability assay extends protein–ligand identification to membrane proteins, tissues and bacteria” (Nature Structural & Molecular Biology, 2025).

By UniProt entry, the sequences of proteins in these tests, tags left out. Where a name states a change or a piece, a line headed by the entry shows the natural chain unless it says otherwise.
UniProt O43307: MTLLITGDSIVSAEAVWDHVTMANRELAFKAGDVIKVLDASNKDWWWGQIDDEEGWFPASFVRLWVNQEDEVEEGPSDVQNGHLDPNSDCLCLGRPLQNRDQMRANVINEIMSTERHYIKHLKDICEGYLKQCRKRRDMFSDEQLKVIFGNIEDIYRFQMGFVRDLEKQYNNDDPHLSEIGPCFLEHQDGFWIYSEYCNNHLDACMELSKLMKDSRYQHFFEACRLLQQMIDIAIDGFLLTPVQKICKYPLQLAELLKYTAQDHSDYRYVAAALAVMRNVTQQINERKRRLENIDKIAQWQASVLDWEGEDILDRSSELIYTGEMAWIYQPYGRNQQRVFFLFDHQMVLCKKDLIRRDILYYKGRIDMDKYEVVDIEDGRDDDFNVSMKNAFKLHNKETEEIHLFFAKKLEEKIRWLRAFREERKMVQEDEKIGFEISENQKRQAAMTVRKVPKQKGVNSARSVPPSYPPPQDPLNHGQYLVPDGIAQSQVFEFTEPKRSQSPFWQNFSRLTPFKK
UniProt O43734: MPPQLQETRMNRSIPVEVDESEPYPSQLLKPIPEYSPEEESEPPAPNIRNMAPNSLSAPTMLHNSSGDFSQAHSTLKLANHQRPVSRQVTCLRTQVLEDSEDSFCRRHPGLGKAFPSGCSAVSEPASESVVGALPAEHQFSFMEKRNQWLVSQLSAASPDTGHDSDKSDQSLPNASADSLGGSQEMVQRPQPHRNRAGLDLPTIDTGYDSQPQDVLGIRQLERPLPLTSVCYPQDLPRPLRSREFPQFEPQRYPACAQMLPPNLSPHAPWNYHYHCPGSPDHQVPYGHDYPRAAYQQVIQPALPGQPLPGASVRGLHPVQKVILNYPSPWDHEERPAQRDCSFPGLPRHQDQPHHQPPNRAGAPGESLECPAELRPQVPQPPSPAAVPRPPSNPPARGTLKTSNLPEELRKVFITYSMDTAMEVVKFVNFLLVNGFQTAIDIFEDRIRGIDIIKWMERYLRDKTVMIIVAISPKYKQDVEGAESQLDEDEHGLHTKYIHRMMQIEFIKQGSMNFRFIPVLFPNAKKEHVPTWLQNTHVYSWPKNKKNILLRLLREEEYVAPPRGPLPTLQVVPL
UniProt O75122: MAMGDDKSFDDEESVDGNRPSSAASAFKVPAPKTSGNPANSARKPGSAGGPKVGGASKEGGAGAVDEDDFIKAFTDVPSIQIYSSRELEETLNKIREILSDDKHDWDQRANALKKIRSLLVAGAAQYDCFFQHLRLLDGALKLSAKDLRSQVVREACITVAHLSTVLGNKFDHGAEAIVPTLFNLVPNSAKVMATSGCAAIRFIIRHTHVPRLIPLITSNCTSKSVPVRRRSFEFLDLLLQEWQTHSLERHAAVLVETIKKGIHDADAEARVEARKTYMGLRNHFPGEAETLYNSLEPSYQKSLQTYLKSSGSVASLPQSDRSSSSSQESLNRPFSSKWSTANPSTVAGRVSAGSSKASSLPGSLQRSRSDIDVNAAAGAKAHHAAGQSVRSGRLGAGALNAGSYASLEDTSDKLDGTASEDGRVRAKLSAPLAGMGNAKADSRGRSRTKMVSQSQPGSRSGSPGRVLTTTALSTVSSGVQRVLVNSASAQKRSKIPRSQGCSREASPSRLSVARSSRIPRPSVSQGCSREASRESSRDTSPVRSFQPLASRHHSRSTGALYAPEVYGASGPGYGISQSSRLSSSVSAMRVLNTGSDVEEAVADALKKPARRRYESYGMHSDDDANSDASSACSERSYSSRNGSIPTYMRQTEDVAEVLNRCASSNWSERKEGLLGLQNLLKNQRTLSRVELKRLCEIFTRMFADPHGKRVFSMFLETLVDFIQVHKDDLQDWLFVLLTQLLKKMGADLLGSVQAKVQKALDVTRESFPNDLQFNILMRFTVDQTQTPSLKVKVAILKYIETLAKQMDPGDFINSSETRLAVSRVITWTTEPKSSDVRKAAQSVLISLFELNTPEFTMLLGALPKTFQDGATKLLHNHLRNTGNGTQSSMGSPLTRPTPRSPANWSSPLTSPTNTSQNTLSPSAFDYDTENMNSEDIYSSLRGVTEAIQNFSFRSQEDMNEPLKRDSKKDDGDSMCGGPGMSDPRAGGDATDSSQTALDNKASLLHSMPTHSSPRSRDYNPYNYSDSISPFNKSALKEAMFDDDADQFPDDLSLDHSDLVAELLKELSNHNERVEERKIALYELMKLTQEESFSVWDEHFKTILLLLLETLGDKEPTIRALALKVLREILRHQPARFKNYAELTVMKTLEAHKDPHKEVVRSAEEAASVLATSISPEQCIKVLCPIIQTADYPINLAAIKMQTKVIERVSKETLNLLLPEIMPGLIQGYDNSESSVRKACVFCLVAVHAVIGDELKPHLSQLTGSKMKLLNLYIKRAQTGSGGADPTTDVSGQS
UniProt O75154: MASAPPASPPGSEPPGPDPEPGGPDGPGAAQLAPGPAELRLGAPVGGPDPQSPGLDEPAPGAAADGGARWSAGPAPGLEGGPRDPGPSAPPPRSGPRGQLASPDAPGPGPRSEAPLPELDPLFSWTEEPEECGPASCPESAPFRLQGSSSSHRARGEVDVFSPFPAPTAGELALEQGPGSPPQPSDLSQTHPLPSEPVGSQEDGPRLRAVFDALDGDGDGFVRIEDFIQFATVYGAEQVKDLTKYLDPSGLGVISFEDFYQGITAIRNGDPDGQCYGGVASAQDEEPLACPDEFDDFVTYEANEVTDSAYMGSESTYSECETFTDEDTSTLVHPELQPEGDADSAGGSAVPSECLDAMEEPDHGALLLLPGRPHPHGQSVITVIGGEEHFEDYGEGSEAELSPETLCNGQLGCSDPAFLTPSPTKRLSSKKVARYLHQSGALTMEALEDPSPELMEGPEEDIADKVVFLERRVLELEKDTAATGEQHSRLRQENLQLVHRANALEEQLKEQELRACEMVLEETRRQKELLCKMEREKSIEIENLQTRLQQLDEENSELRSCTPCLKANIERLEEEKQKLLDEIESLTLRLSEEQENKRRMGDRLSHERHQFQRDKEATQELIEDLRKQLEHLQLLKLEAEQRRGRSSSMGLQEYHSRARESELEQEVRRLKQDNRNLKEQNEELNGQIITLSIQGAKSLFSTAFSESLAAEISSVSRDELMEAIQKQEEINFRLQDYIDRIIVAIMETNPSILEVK
UniProt O60331: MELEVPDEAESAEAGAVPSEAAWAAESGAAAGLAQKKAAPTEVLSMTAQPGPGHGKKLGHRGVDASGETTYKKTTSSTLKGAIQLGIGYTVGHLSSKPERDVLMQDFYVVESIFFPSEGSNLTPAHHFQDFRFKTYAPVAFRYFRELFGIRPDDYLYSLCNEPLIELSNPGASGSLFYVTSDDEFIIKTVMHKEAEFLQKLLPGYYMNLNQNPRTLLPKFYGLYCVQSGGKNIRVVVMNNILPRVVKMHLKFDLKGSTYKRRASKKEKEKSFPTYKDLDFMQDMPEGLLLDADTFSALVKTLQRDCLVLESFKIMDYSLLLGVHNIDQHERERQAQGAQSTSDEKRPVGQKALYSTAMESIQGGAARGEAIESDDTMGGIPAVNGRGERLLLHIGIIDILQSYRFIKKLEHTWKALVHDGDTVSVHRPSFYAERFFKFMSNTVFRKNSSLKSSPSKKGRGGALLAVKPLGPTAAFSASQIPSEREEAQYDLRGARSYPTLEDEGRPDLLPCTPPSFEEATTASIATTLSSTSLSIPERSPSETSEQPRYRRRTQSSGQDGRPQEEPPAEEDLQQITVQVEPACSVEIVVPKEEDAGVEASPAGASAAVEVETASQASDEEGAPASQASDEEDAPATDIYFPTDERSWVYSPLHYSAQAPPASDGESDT
UniProt O75147: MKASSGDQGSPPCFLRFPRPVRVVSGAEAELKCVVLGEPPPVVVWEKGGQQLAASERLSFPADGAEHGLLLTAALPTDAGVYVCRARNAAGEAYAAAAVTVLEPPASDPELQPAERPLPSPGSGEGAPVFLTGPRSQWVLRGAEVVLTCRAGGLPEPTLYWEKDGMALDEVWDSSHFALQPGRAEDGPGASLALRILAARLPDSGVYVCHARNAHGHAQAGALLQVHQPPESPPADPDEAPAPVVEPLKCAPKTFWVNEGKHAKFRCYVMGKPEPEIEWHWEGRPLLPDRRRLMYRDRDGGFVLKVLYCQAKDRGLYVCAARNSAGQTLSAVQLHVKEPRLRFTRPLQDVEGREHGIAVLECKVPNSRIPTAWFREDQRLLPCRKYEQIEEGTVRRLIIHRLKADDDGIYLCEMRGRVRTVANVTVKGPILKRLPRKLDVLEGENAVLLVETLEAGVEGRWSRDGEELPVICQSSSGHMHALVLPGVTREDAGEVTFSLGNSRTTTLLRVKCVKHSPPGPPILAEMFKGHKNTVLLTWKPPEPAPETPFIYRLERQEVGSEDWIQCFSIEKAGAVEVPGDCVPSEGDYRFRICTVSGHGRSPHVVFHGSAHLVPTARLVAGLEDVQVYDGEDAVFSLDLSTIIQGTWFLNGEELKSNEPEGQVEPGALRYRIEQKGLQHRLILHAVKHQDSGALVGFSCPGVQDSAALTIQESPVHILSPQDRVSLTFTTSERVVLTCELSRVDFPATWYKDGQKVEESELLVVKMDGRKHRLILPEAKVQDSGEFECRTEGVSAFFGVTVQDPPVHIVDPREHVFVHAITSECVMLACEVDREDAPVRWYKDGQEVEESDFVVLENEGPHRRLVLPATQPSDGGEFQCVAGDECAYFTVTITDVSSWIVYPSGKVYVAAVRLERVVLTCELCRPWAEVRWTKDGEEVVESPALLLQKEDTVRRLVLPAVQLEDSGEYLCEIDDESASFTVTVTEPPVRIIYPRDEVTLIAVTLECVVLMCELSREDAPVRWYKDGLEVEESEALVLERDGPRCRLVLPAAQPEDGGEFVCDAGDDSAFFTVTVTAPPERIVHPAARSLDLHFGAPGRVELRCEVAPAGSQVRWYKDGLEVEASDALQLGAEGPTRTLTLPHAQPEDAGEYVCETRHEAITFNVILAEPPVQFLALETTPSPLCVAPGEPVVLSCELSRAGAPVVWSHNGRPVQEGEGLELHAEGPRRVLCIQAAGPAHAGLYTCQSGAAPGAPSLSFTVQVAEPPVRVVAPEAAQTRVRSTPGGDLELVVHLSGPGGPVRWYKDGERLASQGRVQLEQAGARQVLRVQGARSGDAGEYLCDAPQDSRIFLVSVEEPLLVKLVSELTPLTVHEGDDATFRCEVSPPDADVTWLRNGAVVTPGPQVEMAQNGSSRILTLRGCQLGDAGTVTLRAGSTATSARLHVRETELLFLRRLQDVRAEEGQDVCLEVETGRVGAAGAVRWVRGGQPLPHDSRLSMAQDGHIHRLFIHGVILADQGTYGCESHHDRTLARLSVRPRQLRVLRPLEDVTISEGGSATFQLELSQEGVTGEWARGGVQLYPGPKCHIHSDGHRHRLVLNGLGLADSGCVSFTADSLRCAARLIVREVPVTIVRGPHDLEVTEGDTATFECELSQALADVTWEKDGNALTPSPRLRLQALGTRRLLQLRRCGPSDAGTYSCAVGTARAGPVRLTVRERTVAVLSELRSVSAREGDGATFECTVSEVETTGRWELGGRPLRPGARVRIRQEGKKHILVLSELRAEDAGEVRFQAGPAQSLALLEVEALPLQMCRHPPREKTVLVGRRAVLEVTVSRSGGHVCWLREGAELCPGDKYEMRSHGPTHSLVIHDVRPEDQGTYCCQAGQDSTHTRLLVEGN
UniProt O60304: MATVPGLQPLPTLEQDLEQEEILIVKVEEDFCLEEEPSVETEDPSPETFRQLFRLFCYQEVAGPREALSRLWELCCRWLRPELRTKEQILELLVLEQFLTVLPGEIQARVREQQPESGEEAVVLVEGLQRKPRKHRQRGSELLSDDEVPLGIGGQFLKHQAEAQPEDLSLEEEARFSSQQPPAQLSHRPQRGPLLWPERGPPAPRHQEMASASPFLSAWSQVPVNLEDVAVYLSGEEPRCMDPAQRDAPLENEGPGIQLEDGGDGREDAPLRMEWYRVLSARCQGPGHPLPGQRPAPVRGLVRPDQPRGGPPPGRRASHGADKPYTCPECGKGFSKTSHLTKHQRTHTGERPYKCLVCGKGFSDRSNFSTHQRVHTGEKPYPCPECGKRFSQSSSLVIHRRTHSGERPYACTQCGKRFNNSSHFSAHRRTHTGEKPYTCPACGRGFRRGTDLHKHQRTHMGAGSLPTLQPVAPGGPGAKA
UniProt O43768: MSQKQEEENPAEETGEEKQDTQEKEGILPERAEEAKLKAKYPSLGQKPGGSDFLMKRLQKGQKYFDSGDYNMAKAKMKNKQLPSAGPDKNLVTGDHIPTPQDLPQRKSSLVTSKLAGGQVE
UniProt O43402: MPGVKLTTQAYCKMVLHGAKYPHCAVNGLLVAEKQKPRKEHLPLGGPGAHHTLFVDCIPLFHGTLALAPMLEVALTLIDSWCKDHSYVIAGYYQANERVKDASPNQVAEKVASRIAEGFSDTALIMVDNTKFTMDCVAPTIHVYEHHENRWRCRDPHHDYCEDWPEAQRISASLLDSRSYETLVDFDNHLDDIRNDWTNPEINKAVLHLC

The list shows a part of the results. Most entries show no effect beyond the scatter of the controls.

Compound in this experiment: Cc1nc(Nc2ncc(C(=O)Nc3c(C)cccc3Cl)s2)cc(N2CCN(CCO)CC2)n1 [dasatinib]
In words: log2 fold change of tryptic peptide abundance, ligand vs vehicle (limited proteolysis) (log2 ratio); higher = more trypsin-susceptible (destabilized). The note with it: ligand concentration: 5 uM; sample: K562 cleared lysate.
For the target “UniProt O43307 (peptide sequence: KLEEKIR, peptide start residue: 409)”, the log2 fold change is -0.216.
For “TRAF3IP2 (peptide sequence: HQDQPHHQPPNR, peptide start residue: 349) (UniProt O43734)” the value was 0.169.
To “CLASP2 (peptide sequence: FKNYAELTVMK, peptide start residue: 1137) (UniProt O75122)” belongs -0.195.
For “RAB11FIP3 (peptide sequence: ANALEEQLKEQELR, peptide start residue: 501) (UniProt O75154)” the value was -0.269; for “PIP5K1C (peptide sequence: KAAPTEVLSMTAQPGPGHGK, peptide start residue: 37) (UniProt O60331)”, -0.166; for “OBSL1 (peptide sequence: SPHVVFHGSAHLVPTAR, peptide start residue: 601) (UniProt O75147)”, 0.256.
“UniProt O60304 (peptide sequence: FSSQQPPAQLSHRPQR, peptide start residue: 176)”: the log2 fold change was determined as 0.339.
To “ENSA (peptide sequence: AKYPSLGQKPGGSDFLMK, peptide start residue: 39) (UniProt O43768)” belongs 0.0416; to “UniProt O43402 (peptide sequence: SYETLVDFDNHLDDIR, peptide start residue: 179)”, -0.225.
